No constants are given. Whether binding was seen depends on the method and setting. In cells and extracts the contact can be indirect. Some entries that bind do so weakly or less than the wild type.
Target: ATR (human (endogenous in HUVEC)) (UniProt Q13535)
Experiment: proximity ligation; Duolink PLA in fixed (4% formaldehyde), Triton X-100 permeabilised HUVEC transduced with PCAT19 overexpression plasmid or pcDNA3.1+ control; anti-RPA2 and anti-ATR antibodies; PLA signals normalised to number of nuclei

Amino acid sequences for entries named in this document (tags omitted).
UniProt Q13535: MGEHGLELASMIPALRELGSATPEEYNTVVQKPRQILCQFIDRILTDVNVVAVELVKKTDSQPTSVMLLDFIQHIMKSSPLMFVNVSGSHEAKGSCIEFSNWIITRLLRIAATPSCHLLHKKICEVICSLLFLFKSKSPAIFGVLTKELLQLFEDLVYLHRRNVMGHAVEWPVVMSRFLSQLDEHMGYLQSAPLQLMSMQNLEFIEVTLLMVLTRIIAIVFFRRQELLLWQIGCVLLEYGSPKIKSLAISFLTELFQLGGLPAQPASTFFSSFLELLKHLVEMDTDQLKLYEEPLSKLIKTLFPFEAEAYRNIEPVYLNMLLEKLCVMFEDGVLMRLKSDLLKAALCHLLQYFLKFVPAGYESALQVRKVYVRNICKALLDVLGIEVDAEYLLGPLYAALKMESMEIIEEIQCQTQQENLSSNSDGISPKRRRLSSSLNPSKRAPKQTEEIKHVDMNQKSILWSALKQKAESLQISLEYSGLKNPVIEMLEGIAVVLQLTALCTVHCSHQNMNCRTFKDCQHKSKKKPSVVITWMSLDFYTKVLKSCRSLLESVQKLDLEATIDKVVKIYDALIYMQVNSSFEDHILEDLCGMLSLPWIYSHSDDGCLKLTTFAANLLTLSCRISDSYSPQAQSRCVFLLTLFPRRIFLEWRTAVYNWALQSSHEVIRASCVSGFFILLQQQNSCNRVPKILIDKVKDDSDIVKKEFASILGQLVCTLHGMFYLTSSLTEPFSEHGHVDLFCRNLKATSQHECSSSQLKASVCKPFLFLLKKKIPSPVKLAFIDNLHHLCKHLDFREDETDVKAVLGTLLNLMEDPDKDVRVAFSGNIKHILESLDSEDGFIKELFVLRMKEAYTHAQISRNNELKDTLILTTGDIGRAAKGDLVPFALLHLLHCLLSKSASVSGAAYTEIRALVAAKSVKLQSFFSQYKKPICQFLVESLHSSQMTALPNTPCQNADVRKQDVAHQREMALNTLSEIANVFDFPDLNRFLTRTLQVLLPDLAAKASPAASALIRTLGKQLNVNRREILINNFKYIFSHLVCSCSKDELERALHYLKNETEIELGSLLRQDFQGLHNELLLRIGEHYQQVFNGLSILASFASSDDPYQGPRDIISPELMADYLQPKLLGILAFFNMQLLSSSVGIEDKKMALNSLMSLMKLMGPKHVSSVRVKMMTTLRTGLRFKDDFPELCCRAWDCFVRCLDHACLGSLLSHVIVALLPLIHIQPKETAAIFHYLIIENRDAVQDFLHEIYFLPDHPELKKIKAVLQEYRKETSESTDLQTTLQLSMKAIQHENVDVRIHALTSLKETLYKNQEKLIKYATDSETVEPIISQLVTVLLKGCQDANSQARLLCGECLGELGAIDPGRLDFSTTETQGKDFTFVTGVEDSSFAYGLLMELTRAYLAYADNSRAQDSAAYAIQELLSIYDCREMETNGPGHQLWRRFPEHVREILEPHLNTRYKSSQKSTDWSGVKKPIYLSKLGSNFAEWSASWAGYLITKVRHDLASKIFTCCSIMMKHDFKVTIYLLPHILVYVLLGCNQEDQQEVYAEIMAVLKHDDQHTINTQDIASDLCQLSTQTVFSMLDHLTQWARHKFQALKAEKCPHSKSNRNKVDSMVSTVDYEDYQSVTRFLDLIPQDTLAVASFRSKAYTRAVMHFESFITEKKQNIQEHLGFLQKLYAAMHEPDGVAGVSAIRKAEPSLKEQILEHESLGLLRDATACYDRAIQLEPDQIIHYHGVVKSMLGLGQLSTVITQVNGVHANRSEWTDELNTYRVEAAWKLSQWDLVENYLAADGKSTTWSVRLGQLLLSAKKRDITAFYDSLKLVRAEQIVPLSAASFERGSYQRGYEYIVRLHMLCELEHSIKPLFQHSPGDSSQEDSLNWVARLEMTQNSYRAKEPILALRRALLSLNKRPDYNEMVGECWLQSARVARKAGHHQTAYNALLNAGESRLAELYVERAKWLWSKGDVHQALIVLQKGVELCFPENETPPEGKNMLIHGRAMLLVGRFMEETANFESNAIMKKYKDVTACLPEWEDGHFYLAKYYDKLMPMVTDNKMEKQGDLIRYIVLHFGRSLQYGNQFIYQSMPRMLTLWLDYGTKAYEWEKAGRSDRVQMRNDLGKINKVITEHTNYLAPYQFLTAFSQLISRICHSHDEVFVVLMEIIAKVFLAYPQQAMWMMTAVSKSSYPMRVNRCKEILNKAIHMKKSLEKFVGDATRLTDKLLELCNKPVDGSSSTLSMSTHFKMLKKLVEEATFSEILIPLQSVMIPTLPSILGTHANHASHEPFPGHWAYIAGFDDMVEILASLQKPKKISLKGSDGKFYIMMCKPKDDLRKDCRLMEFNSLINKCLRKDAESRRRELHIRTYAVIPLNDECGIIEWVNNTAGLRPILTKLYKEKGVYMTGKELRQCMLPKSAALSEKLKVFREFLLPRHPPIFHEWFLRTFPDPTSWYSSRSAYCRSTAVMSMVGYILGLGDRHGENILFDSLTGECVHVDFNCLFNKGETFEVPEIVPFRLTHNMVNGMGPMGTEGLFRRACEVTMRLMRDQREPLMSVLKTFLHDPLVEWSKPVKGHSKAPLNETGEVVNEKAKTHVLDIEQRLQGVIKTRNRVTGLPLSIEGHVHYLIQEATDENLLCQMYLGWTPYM
UniProt P15927: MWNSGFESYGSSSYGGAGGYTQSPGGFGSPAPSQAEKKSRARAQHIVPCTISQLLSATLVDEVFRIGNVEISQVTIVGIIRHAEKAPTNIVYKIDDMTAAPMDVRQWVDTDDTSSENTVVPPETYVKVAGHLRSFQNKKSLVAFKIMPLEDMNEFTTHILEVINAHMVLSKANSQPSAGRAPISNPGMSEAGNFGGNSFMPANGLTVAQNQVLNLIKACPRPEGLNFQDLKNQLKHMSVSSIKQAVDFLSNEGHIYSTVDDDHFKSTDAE

binding: binds
Substance: RPA2 (from UniProt P15927 1-270)
